Assay results from patent publication US20260284208A1, “SYSTEM” (Oxford University Innovation Limited, priority 2023, published 2026).
The source gives many values for each of these; only a part stands here.

Tested on: library of 8,380 IKZF3 degrons (ZF-eGFP/mCherry reporter) in Jurkat cells
Experiment: Pooled library screen (FACS, NGS, limma voom LogFC of positive vs negative read counts)
Assay type: cell-based, human
Method: A library of 8,380 IKZF3 degrons was cloned into pLVX-Sprout to create the eGFP/mCherry protein degradation reporter plasmid pool. A lentivirus pool was then generated using the Lenti-X lentiviral vector production method.
Jurkat cells were transduced at a multiplicity of infection of <0.3 with the lentivirus vector library in order to maximise the number of cells with a single integration. Transductions were carried out in 6 well TC-treated cell culture dishes (Falcon) with 3×10^6 cells per well. Cells were incubated for 2 days at 37° C. and 5% CO2 before the supernatant was removed and replaced with fresh media. 6 days post-transduction, mCherry+ cells were isolated via FACS using the FACS Aria Fusion (BD) in a buffer containing PBS (Gibco), 2 mM EDTA (Gibco), 25 mM HEPES (Sigma) and 1% BSA (Sigma). 8 days later, cells were treated with DMSO or a thalidomide analog for 18 hours at 37° C. and 5% CO2. mCherry+GFPlow and NOT(mCherry+GFPlow) cells were sorted by FACS using the FACS Aria Fusion (BD). DMSO treated cells were used to set the mCherry+GFPlow gate and dead cells were excluded from sorting by staining cells with 1 μg/mL DAPI (ThermoFisher). gDNA was isolated using the Maxwell RSC 48 (Promega). gDNA from cells that were unsorted and untreated were also isolated to determine the library representation on the day of compound treatment. Throughout the screen >600× coverage of the library was maintained. 3 biological replicates were carried out with a new transduction taking place each time.
A two-step PCR was used where the first PCR (PCR1) amplified the integrated degron sequence from gDNA and the second PCR (PCR2) added Illumina adaptors and barcodes to permit multiplexing. See Supp F for PCR1 and PCR2 primers. Q5 Hot Start High-Fidelity 2× Master Mix (New England Biolabs) was used for both PCRs. Sufficient gDNA was amplified in PCR1 in order to maintain >600× coverage and amplicons were purified using solid phase reversible immobilization (SPRI) beads (Beckman Coulter). Purified PCR1 products were analysed on the Tapestation 4200 (Agilent) to confirm purity prior to proceeding to PCR2. Sufficient PCR1 product was amplified in PCR2 in order to maintain >600× coverage and amplicons were run on a 2% agarose TAE gel. Target bands were excised and purified using the NucleoSpin Gel and PCR Clean-up Kit (Machery Nagel). Amplicons were analysed on the Tapestation 4200 and quantified using Qubit dsDNA HS kit (ThermoFisher). PCR products were pooled and sequenced as paired-reads on the NovaSeq (Illumina) using a SP2 200 cycles kit (Illumina).
Count distributions, percentage of read mapping, library coverage and replicate correlation per sample were assessed for QC purposes.
To carry out the library screen, we used the same plasmid construct as in our earlier flow cytometry assays, but pooling all 8,380 mutants together into one Jurkat population, ensuring a copy number of one plasmid per cell (FIG. 4B). […] These GFP-negative cells were then separated from the remaining GFP-positive population using fluorescence activated cell sorting (FACS). These two populations were then sequenced and the relative abundance of every mutant in both populations compared to provide a log FC value for each mutant sequence. This value indicated how frequently a sequence is observed in the GFP-negative population relative to the GFP-positive population, and therefore how effective a degron it is for that particular IMID compound.

Molecule `O=C1CCC(N2C(=O)c3ccc(N4CCOCC4)cc3C2=O)C(=O)N1` (stereo not shown) [B03] has a B03_logFC (Degron-ID 1793, SEQ ID NO 3927, 46F_47I_49E_50V_52G_53A_54Q_55F_67L) of 2.796, a B03_logFC (Degron-ID 1794, SEQ ID NO 4399, 46F_47I_49E_50V_52G_53A_54R_55F_67L_) of 2.038 and a B03_logFC (Degron-ID 1795, SEQ ID NO 3881, 46F_47I_49E_50V_52G_53A_54S_55F_67L) of 2.88. For the same molecule, the B03_logFC (Degron-ID 1860, SEQ ID NO 3740, 46F_47I_49P_50I_52G_53A_54A_55F_67L_) was 3.147, the B03_logFC (Degron-ID 1861, SEQ ID NO 4418, 46F_47I_49P_50I_52G_53A_54C_55F_67L_) was 2.019 and the B03_logFC (Degron-ID 1863, SEQ ID NO 4322, 46F_47I_49P_50I_52G_53A_54E_55F_67L_) was 2.172. For the same molecule, the B03_logFC (Degron-ID 1866, SEQ ID NO 4339, 46F_47I_49P_50I_52G_53A_54H_55F_67L_) was 2.146, the B03_logFC (Degron-ID 1873, SEQ ID NO 3897, 46F_47I_49P_50I_52G_53A_54Q_55F_67L) was 2.856 and the B03_logFC (Degron-ID 1875, SEQ ID NO 3888, 46F_47I_49P_50I_52G_53A_54S_55F_67L) was 2.873. It also gave a B03_logFC (Degron-ID 1879, SEQ ID NO 4411, 46F_47I_49P_50I_52G_53A_54Y_55F_67L_) of 2.029, a B03_logFC (Degron-ID 1900, SEQ ID NO 3894, 46F_47I_49P_50V_52G_53A_54A_55F_67L) of 2.862 and a B03_logFC (Degron-ID 1901, SEQ ID NO 4384, 46F_47I_49P_50V_52G_53A_54C_55F_67L_) of 2.062. For the same molecule, the B03_logFC (Degron-ID 1911, SEQ ID NO 3912, 46F_47I_49P_50V_52G_53A_54N_55F_67L) was 2.828, the B03_logFC (Degron-ID 1914, SEQ ID NO 4372, 46F_47I_49P_50V_52G_53A_54R_55F_67L_) was 2.085 and the B03_logFC (Degron-ID 2112, SEQ ID NO 4284, 46F_47K_49P_50I_52G_53A_54P_55F_67L_) was 2.243. For the same molecule, the B03_logFC (Degron-ID 2172, SEQ ID NO 4334, 46F_47L_49D_50I_52G_53A_54P_55F_67L_) was 2.151, the B03_logFC (Degron-ID 2232, SEQ ID NO 3916, 46F_47L_49E_50I_52G_53A_54P_55F_67L) was 2.822 and the B03_logFC (Degron-ID 2352, SEQ ID NO 3817, 46F_47L_49P_50I_52G_53A_54P_55F_67L_) was 2.979. The B03_logFC (Degron-ID 2412, SEQ ID NO 3687, 46F_47M_49D_50I_52G_53A_54P_55F_67L_) was 3.249, the B03_logFC (Degron-ID 2505, SEQ ID NO 4427, 46F_47M_49E_50V_52G_53A_54G_55F_67L_) was 2.012 and the B03_logFC (Degron-ID 2532, SEQ ID NO 3778, 46F_47M_49N_50I_52G_53A_54P_55F_67L_) was 3.048. For the same molecule, the B03_logFC (Degron-ID 2620, SEQ ID NO 4306, 46F_47M_49P_50V_52G_53A_54A_55F_67L_) was 2.209, the B03_logFC (Degron-ID 2625, SEQ ID NO 4340, 46F_47M_49P_50V_52G_53A_54G_55F_67L_) was 2.14 and the B03_logFC (Degron-ID 2635, SEQ ID NO 4398, 46F_47M_49P_50V_52G_53A_54S_55F_67L_) was 2.039. For the same molecule, the B03_logFC (Degron-ID 2832, SEQ ID NO 3705, 46F_47N_49P_50I_52G_53A_54P_55F_67L_) was 3.203, the B03_logFC (Degron-ID 2872, SEQ ID NO 4043, 46F_47N_49P_50V_52G_53A_54P_55F_67L) was 2.617 and the B03_logFC (Degron-ID 2881, SEQ ID NO 4355, 46F_47Q_49D_50I_52G_53A_54C_55F_67L_) was 2.117. For the same molecule, the B03_logFC (Degron-ID 2888, SEQ ID NO 4280, 46F_47Q_49D_50I_52G_53A_54K_55F_67L_) was 2.247, the B03_logFC (Degron-ID 2892, SEQ ID NO 3744, 46F_47Q_49D_50I_52G_53A_54P_55F_67L_) was 3.141 and the B03_logFC (Degron-ID 2932, SEQ ID NO 4358, 46F_47Q_49D_50V_52G_53A_54P_55F_67L_) was 2.109. For the same molecule, the B03_logFC (Degron-ID 2940, SEQ ID NO 3931, 46F_47Q_49E_50I_52G_53A_54A_55F_67L) was 2.786, the B03_logFC (Degron-ID 2941, SEQ ID NO 3769, 46F_47Q_49E_50I_52G_53A_54C_55F_67L_) was 3.082 and the B03_logFC (Degron-ID 2947, SEQ ID NO 3726, 46F_47Q_49E_50I_52G_53A_54I_55F_67L_) was 3.158. For the same molecule, the B03_logFC (Degron-ID 2948, SEQ ID NO 3833, 46F_47Q_49E_50I_52G_53A_54K_55F_67L_) was 2.953, the B03_logFC (Degron-ID 2950, SEQ ID NO 4292, 46F_47Q_49E_50I_52G_53A_54M_55F_67L_) was 2.236 and the B03_logFC (Degron-ID 2953, SEQ ID NO 4288, 46F_47Q_49E_50I_52G_53A_54Q_55F_67L_) was 2.238. The B03_logFC (Degron-ID 2954, SEQ ID NO 4364, 46F_47Q_49E_50I_52G_53A_54R_55F_67L_) was 2.097, the B03_logFC (Degron-ID 2955, SEQ ID NO 3925, 46F_47Q_49E_50I_52G_53A_54S_55F_67L) was 2.799 and the B03_logFC (Degron-ID 2980, SEQ ID NO 3652, 46F_47Q_49E_50V_52G_53A_54A_55F_67L_) was 3.341. For the same molecule, the B03_logFC (Degron-ID 2987, SEQ ID NO 3773, 46F_47Q_49E_50V_52G_53A_54I_55F_67L_) was 3.067, the B03_logFC (Degron-ID 2988, SEQ ID NO 3815, 46F_47Q_49E_50V_52G_53A_54K_55F_67L_) was 2.983 and the B03_logFC (Degron-ID 2990, SEQ ID NO 4357, 46F_47Q_49E_50V_52G_53A_54M_55F_67L_) was 2.113. It also gave a B03_logFC (Degron-ID 2995, SEQ ID NO 3867, 46F_47Q_49E_50V_52G_53A_54S_55F_67L) of 2.895.
